# “And” between values parts separate entries of the source, which are not always exact repeats. Identical values can stand only once. In all, about 320,000 compounds went through this assay and about 22,000 (6.9%) were called active. Inconclusive means that the source gave no clear call. Such entries were picked first, then a sample of the others. Calls come from the whole dose curve; as a rule, active = well fitted inhibition curve with a large enough effect; inconclusive = small, poorly fitted or top-dose-only effect, or another doubt; inactive = no such curve, though single readings can be large or run the other way. Where the call is inconclusive, the potency comes from a doubtful curve fit. A structure can be active in one record and inactive in another.
# Assay: Primary qHTS for delayed death inhibitors of the malarial parasite plastid, 96 hour incubation
# Conditions: P. falciparum luciferase reporter growth; series mostly up to 28.7 µM; activity change, negative = inhibition: at the top concentration
# In short: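 Readout is luminescence from an integrated firefly luciferase in P. falciparum. Red cells, 2% hematocrit and 0.05% parasitemia final, were cultured with compound through two parasite generations (96 hours) at 37 C, 5% CO2.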
# % is set by controls: 0 for no effect and ±100 for the full control effect; potency is the fitted concentration of half-maximal effect.
Compound,Potency,"activity change, negative = inhibition"
CCc1nc(Sc2nnnn2-c2ccccc2)c2c3c(sc2n1)CCCC3,"inconclusive: 6.57 µM [inhibitor, partial curve, poor fit]",–
O=C(COC(=O)c1c[nH]c(=O)[nH]c1=O)Nc1ccccc1,–,inactive: 22.8%
O=C(NC(Cc1ccccc1)C(=O)O)/C(=C/c1ccccc1)NC(=O)c1ccco1 (centres undefined),active: 5.22 µM,–
O=C(O)C1CCC(=O)N1C1c2ccccc2Oc2ccccc21 (centres undefined),"inconclusive: 18.5 µM [inhibitor, single point]",–
CCn1c(=O)c(C(=O)Nc2ncccc2O)c(O)c2ccccc21,"inconclusive: 18.5 µM [inhibitor, single point]",–
COc1ccccc1NC(=O)COC(=O)c1ccc2c(c1)nc(C)n2-c1ccccc1,–,inactive: -19.5%
Cc1[nH]c2ccccc2c1/C=N/NC(=O)c1cccc(Br)c1,–,inactive: -20.4%
CCc1ccc(NC(=O)CNC(=O)c2cn(-c3ccccc3OC)c(=O)c3ccccc23)cc1,"inconclusive: 18.5 µM [inhibitor, single point]",–
CCOC(=O)c1cccnc1SCC(=O)N(CC)c1cccc(C)c1,active: 11.7 µM,–
O=C(/C=C/c1ccc(S(=O)(=O)N2CCOCC2)cc1)NCc1ccc(Cl)cc1,"inconclusive: 11.7 µM [inhibitor, single point]",–
O=C(NCc1ccccc1)/C(=C/c1ccccc1)NC(=O)c1ccco1,"inconclusive: 7.38 µM [inhibitor, partial curve, poor fit]",–
COc1ccc(OC)c(NC(=O)C(=O)c2cn(CC(=O)N3CCCC3)c3ccccc23)c1,active: 4.65 µM,–
Cc1cccc(CCNC(=O)c2oc3c(C)c(C)ccc3c2C)n1,"inconclusive: 16.5 µM [inhibitor, single point]",–
COC(=O)C1=C(c2ccc(F)cc2OCc2ccccc2)C[C@@H]2CC[C@H]1N2C(=O)NCCOc1ccccc1Cl,"inconclusive: 2.33 µM [inhibitor, full curve, poor fit]",–
CC1=C(C(=O)Nc2cccnc2)C(c2cccnc2)n2ncnc2N1 (centres undefined),"inconclusive: 10.4 µM [inhibitor, single point]",–
CC(C)(C)c1ccc(C(=O)Nc2ccc(Cl)cc2)cc1,–,inactive: 110%
O=C(CC1C(=O)NCCN1CC1CCCCC1)NCc1ccc(F)cc1F (centres undefined),"inconclusive: 18.5 µM [inhibitor, single point]",–
S=c1nc(NCc2cccc(Cl)c2)c2ccccc2[nH]1,–,inactive: 24.5%
CCc1cc[n+](CC(=O)Nc2ccc(Cl)cc2Cl)cc1,"inconclusive: 0.329 µM [inhibitor, full curve, poor fit]",–
COc1ccc(NC(=S)N(CCCN2CCOCC2)Cc2cn(C)c3ccccc23)cc1OC,active: 4.15 µM,–
COc1ccc(-n2c(Cc3cccn3C)nnc2SCC(=O)NCc2ccco2)cc1,–,inactive: 0.126%
O=C(O)c1ccc(-c2ccc(OS(=O)(=O)c3ccccc3F)cc2)cc1,–,inactive: 23.5%
Cc1nc(SCC(=O)N2CCC(Cc3ccccc3)CC2)[nH]c(=O)c1C,"inconclusive: 10.4 µM [inhibitor, single point]",–
COc1cccc(-c2nn(C)c3sc(C(=O)N4CCOCC4)cc23)c1,active: 2.33 µM,–
Cc1ccc(C(=O)Nc2ccc(N3CCCC3)cc2)cc1,–,inactive: 154%

Compound,Potency,"activity change, negative = inhibition"
COc1cccc(NC(=O)CCC(=O)NCc2ccco2)c1,"inconclusive: 20.8 µM [inhibitor, single point]",–
CC(C)C(=O)OCC(=O)[C@@]12OC(C3CCCCC3)O[C@@H]1CC1C3CCC4=CC(=O)C=C[C@]4(C)C3[C@@H](O)C[C@@]12C (some centres undefined),active: 0.757 µM,–
Cc1ccc(-c2nn(-c3ccccn3)c(=O)c3ccccc23)cc1C,–,inactive: -1.85%
NC(=O)c1cc(C(=O)Cc2ccc(Cl)cc2)c[nH]1,–,inactive: 55.9%
CCC(C)NCC(O)(c1ccc(Cl)cc1)c1ccc(Cl)cc1 (centres undefined),active: 2.94 µM,–
O=C(C1CCC(=O)N(C2CC2)C1)N1CCN(c2ccc(Cl)cc2)CC1 (centres undefined),"inconclusive: 14.7 µM [inhibitor, single point]",–
COc1ccc(N/C(=C(/C(Cl)=C(Cl)Cl)[N+](=O)[O-])n2nnc3ccccc32)cc1OC,active: 14.7 µM,–
C=CCNC(=O)N1CCCC(C(=O)c2cccc(OC(C)C)c2)C1 (centres undefined),"inconclusive: 18.5 µM [inhibitor, single point]",–
Cc1ccc(-c2nnn(CC(=O)Nc3ccc(S(=O)(=O)N4CCC(C)CC4)cc3)n2)cc1,"inconclusive: 20.8 µM [inhibitor, single point]",–
CCC(c1nnnn1CCOC)N1CCN(c2nc3ccccc3s2)CC1 (centres undefined),–,inactive: -11.4%
Nc1cc(=O)n(Cc2ccccc2)c(=O)n1-c1ccc(F)cc1,"inconclusive: 18.5 µM [inhibitor, single point]",–
Cc1ccc(C)c(OCc2cc(C(=O)NC3CCN(Cc4ccccc4)CC3)no2)c1,"inconclusive: 14.7 µM [inhibitor, partial curve, poor fit]",–
O=c1c2ccccc2nc(/C=C/c2cccc(Br)c2)n1CCCO,active: 13.1 µM,–
CCOC(CNc1ncnc2sc(-c3ccccc3)cc12)OCC,"inconclusive: 13.1 µM [inhibitor, partial curve, poor fit]",–
CCC(C)NC(=O)c1cn(CC)c2cc(N3CCN(C)CC3)c(F)cc2c1=O (centres undefined),–,inactive: -21.7%
Cc1ccc(S(=O)(=O)CC(=O)Nc2ncc([N+](=O)[O-])s2)cc1,–,inactive: 25.5%
CC(=O)Nc1ccc(S(=O)(=O)Nc2ccc(C)c([N+](=O)[O-])c2)cc1,"inconclusive: 13.1 µM [inhibitor, partial curve]",–
O=C(CCCn1cnc([N+](=O)[O-])n1)Nc1ccc(F)c(Cl)c1,"inconclusive: 18.5 µM [inhibitor, single point]",–
COc1cc(/C=N/NC(=O)/C(=C/c2ccccc2)CCO)ccc1O,–,inactive: -20.6%
O=C(CC1(O)C(=O)Nc2ccccc21)c1ccc(-n2cnnn2)cc1 (centres undefined),"inconclusive: 2.08 µM [inhibitor, full curve, poor fit]",–
CC(C)C[C@H](NC(=O)c1[nH]cnc1C(=O)Nc1ccccc1)C(=O)OC(C)(C)C,"inconclusive: 11.7 µM [inhibitor, single point]",–
O=C(CN(Cc1ccco1)C(=O)Cn1nnc(-c2cccs2)n1)NCc1ccccc1,"inconclusive: 13.1 µM [inhibitor, partial curve]",–
COc1cc(C2C(C(=O)/C=C/c3ccccc3)=C(O)C(=O)N2c2ccccn2)ccc1O (centres undefined),–,inactive: 9.51%
Cc1ccc(C(=O)CNc2nc3c(c(=O)[nH]c(=O)n3C)n2Cc2ccccc2)cc1,active: 9.28 µM,–
Cc1c(C(=O)NCc2ccccn2)sc2nc(-c3ccccc3)cn12,"inconclusive: 0.0041 µM [inhibitor, full curve, poor fit]",–

Compound,Potency,"activity change, negative = inhibition"
COc1ccccc1Nc1nc(NCC2CCCO2)c2ccccc2n1 (centres undefined),active: 1.04 µM,–
CCNC(=O)CSc1nc2cc(S(=O)(=O)Nc3ccc(OC)cc3)ccc2o1,–,inactive: -16.2%
COc1cccc(NC(=S)N2CCN(C)CC2)c1,–,inactive: 18.3%
Cc1cccc(C)c1NC(=O)C1(N(C(=O)c2ccccn2)c2ccc(O)cc2)CCCCC1,"inconclusive: 5.86 µM [inhibitor, partial curve, poor fit]",–
CCCN1CCN(CCCNC(=S)Nc2ccc(F)cc2)CC1,"inconclusive: 8.28 µM [inhibitor, partial curve, poor fit]",–
Cc1ccc(C)c(CN2CCC(CNC(=O)CCc3nnc4ccc(N5CCCCC5)nn34)CC2)c1,"inconclusive: 18.5 µM [inhibitor, single point]",–
CCN(C(=O)COC(=O)CCC(=O)c1cccs1)c1c(N)n(Cc2ccccc2)c(=O)[nH]c1=O,–,inactive: 19.9%
CCN1CCN(Cc2ccc(NC(=O)Nc3ccccc3Cl)cc2)CC1,–,inactive: 0%
CC(=O)c1ccc(NC(=O)c2onc(C)c2Cl)cc1,–,inactive: 47.2%
CC(=O)NC(CC(=O)NC12CC3CC(CC(C3)C1)C2)c1ccccc1 (centres undefined),"inconclusive: 16.5 µM [inhibitor, partial curve, poor fit]",–
CCOCCCNC(=S)N1CCC(NC(=O)c2ccco2)CC1,–,inactive: -1.94%
O=C(O)c1ccc2c(c1)C(=O)N(c1cccc(S(=O)(=O)Nc3cccc(C(F)(F)F)c3)c1)C2=O,–,inactive: -17.6%
COc1ccc(/C(C)=N/NC(=O)c2ccc(NS(=O)(=O)c3cccs3)cc2)cc1,–,inactive: 0%
O=C(NCCc1ccccc1)C(=O)NCC1(c2ccccc2)CCCC1,"inconclusive: 0.928 µM [inhibitor, partial curve, poor fit]",–
Cc1ccc(CNC(=O)c2ccc(Cl)c(S(N)(=O)=O)c2)n1C,–,inactive: -24.3%
COc1ccc(-c2nc(Cn3c(SCc4ccc(C)cc4)nc4ccncc43)c(C)o2)cc1OC,"inconclusive: 18.5 µM [inhibitor, single point]",–
O=C(Nc1nc2ccccc2s1)C1CCCN1S(=O)(=O)c1ccc(Cl)cc1 (centres undefined),–,inactive: 26.3%
CCC(C)(C(=O)NC1CCCC1)N(CC1CCCO1)C(=O)CNC(=O)c1ccccc1 (centres undefined),"inconclusive: 2.94 µM [inhibitor, partial curve, poor fit]",–
O=C(CN1C(=O)NC2(CCCCC2)C1=O)Nc1ccccc1N1CCCC1,–,inactive: 1.63%
CCN(CC)C(=O)N(CC)Cc1ccccc1,"inconclusive: 1.65 µM [inhibitor, full curve]",–
C=CCn1c(/N=C/c2ccc(OC)cc2)nc2ccccc21,–,inactive: -13%
CCOc1cc(C(=O)NN2CCOCC2)cc(OCC)c1OCC,"inconclusive: 4.15 µM [inhibitor, single point]",–
COc1ccc(C(=O)c2ccccc2)c(O)c1,inactive and active: 15.1 µM,–
CC1(C)CC(=O)C(C=NCCN2CCN(C(=O)Cc3ccc(Cl)cc3)CC2)=C(O)C1,–,inactive: -13.9%

# Reference: PubChem BioAssay AID504834 (National Center for Advancing Translational Sciences (NCATS), 2011)
